Assay in all cases: glycan array binding signal (z-score within array); higher = stronger binding
Common to all, as to conditions: glycan notation: IUPAC condensed, linker removed

The target of experiment [1] is Gal(b1-4)GlcNAc(b1-2)[Gal(b1-4)GlcNAc(b1-6)]Man(a1-6)[Gal(b1-4)GlcNAc(b1-2)Man(a1-3)]Man(b1-4)GlcNAc(b1-4)[Fuc(a1-6)]GlcNAc. The method, boiled down: (§1)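 Arrays were curated from the Consortium for Functional Glycomics database, 3228 in total, and kept only where the protein sequence was available. Binding is expressed as a within-array Z-score. This score was averaged across arrays of the same protein sequence at different concentrations or buffers and across linkers, and negative values can be read as non-binding.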

In experiment [2] the target is Gal(b1-4)GlcNAc(b1-2)[Gal(b1-4)GlcNAc(b1-6)]Man(a1-6)[GlcNAc(b1-4)][Gal(b1-4)GlcNAc(b1-2)Man(a1-3)]Man(b1-4)GlcNAc(b1-4)GlcNAc. The method, boiled down: as §1
Experiment [3] deals with Gal(b1-4)GlcNAc(b1-2)[Gal(b1-4)GlcNAc(b1-6)]Man(a1-6)[GlcNAc(b1-4)][Gal(b1-4)GlcNAc(b1-2)[Gal(b1-4)GlcNAc(b1-4)]Man(a1-3)]Man(b1-4)GlcNAc(b1-4)[Fuc(a1-6)]GlcNAc. Summed up:
as §1

In experiment [4] the target is Gal(b1-4)GlcNAc(b1-3)Gal(b1-3)GalNAc. Summed up:
as §1

Experiment [5] concerns the target Gal(b1-4)GlcNAc(b1-3)Gal(b1-3)GlcNAc. Summed up: as §1
The target in experiment [6] is Gal(b1-4)GlcNAc(b1-3)Gal(b1-4)Glc. The method, boiled down: as §1
For experiment [7], the target named is Gal(b1-4)GlcNAc(b1-3)Gal(b1-4)GlcNAc. The method, boiled down:
as §1

Experiment [8] deals with Gal(b1-4)GlcNAc(b1-3)Gal(b1-4)GlcNAc(b1-2)Man(a1-3)[Gal(b1-4)GlcNAc(b1-3)Gal(b1-4)GlcNAc(b1-2)Man(a1-6)]Man(b1-4)GlcNAc(b1-4)GlcNAc. Summed up: as §1
Experiment [9] addresses Gal(b1-4)GlcNAc(b1-3)Gal(b1-4)GlcNAc(b1-2)Man(a1-3)[Gal(b1-4)GlcNAc(b1-3)Gal(b1-4)GlcNAc(b1-2)Man(a1-6)]Man(b1-4)GlcNAc(b1-4)[Fuc(a1-6)]GlcNAc. Summed up:
as §1

Experiment [10] deals with Gal(b1-4)GlcNAc(b1-3)Gal(b1-4)GlcNAc(b1-2)[Gal(b1-4)GlcNAc(b1-3)Gal(b1-4)GlcNAc(b1-6)]Man(a1-6)[Gal(b1-4)GlcNAc(b1-3)Gal(b1-4)GlcNAc(b1-2)Man(a1-3)]Man(b1-4)GlcNAc(b1-4)GlcNAc. The method, boiled down:
as §1

The target of experiment [11] is Gal(b1-4)GlcNAc(b1-3)Gal(b1-4)GlcNAc(b1-2)[Gal(b1-4)GlcNAc(b1-3)Gal(b1-4)GlcNAc(b1-6)]Man(a1-6)[Gal(b1-4)GlcNAc(b1-3)Gal(b1-4)GlcNAc(b1-2)Man(a1-3)]Man(b1-4)GlcNAc(b1-4)[Fuc(a1-6)]GlcNAc. The method, boiled down: as §1
For experiment [12], the target named is Gal(b1-4)GlcNAc(b1-3)Gal(b1-4)GlcNAc(b1-3)Gal(b1-4)GlcNAc. Summed up:
as §1

The target of experiment [13] is Gal(b1-4)GlcNAc(b1-3)Gal(b1-4)GlcNAc(b1-3)Gal(b1-4)GlcNAc(b1-2)Man(a1-3)[Gal(b1-4)GlcNAc(b1-3)Gal(b1-4)GlcNAc(b1-3)Gal(b1-4)GlcNAc(b1-2)Man(a1-6)]Man(b1-4)GlcNAc(b1-4)GlcNAc. Summed up:
as §1

For experiment [14], the target named is Gal(b1-4)GlcNAc(b1-3)Gal(b1-4)GlcNAc(b1-3)Gal(b1-4)GlcNAc(b1-2)Man(a1-3)[Gal(b1-4)GlcNAc(b1-3)Gal(b1-4)GlcNAc(b1-3)Gal(b1-4)GlcNAc(b1-2)Man(a1-6)]Man(b1-4)GlcNAc(b1-4)[Fuc(a1-6)]GlcNAc. The method, boiled down: as §1
In experiment [15] the target is Gal(b1-4)GlcNAc(b1-3)Gal(b1-4)GlcNAc(b1-3)Gal(b1-4)GlcNAc(b1-2)[Gal(b1-4)GlcNAc(b1-3)Gal(b1-4)GlcNAc(b1-3)Gal(b1-4)GlcNAc(b1-6)]Man(a1-6)[Gal(b1-4)GlcNAc(b1-3)Gal(b1-4)GlcNAc(b1-3)Gal(b1-4)GlcNAc(b1-2)Man(a1-3)]Man(b1-4)GlcNAc(b1-4)[Fuc(a1-6)]GlcNAc. The method, boiled down: as §1
In experiment [16] the target is Gal(b1-4)GlcNAc(b1-3)Gal(b1-4)GlcNAc(b1-3)Gal(b1-4)GlcNAc(b1-3)Gal(b1-4)GlcNAc(b1-2)Man(a1-3)[Gal(b1-4)GlcNAc(b1-3)Gal(b1-4)GlcNAc(b1-3)Gal(b1-4)GlcNAc(b1-3)Gal(b1-4)GlcNAc(b1-2)Man(a1-6)]Man(b1-4)GlcNAc(b1-4)GlcNAc. Summed up:
as §1

Experiment [17] has as its target Gal(b1-4)GlcNAc(b1-3)Gal(b1-4)GlcNAc(b1-3)Gal(b1-4)GlcNAc(b1-3)Gal(b1-4)GlcNAc(b1-2)Man(a1-3)[Gal(b1-4)GlcNAc(b1-3)Gal(b1-4)GlcNAc(b1-3)Gal(b1-4)GlcNAc(b1-3)Gal(b1-4)GlcNAc(b1-2)Man(a1-6)]Man(b1-4)GlcNAc(b1-4)[Fuc(a1-6)]GlcNAc. The method, boiled down: as §1
Experiment [18] deals with Gal(b1-4)GlcNAc(b1-3)Gal(b1-4)GlcNAc(b1-3)Gal(b1-4)GlcNAc(b1-3)Gal(b1-4)GlcNAc(b1-2)[Gal(b1-4)GlcNAc(b1-3)Gal(b1-4)GlcNAc(b1-3)Gal(b1-4)GlcNAc(b1-3)Gal(b1-4)GlcNAc(b1-6)]Man(a1-6)[Gal(b1-4)GlcNAc(b1-3)Gal(b1-4)GlcNAc(b1-3)Gal(b1-4)GlcNAc(b1-3)Gal(b1-4)GlcNAc(b1-2)Man(a1-3)]Man(b1-4)GlcNAc(b1-4)[Fuc(a1-6)]GlcNAc. Summed up:
as §1

Experiment [19] has as its target Gal(b1-4)GlcNAc(b1-3)Gal(b1-4)GlcNAc(b1-3)Gal(b1-4)GlcNAc(b1-3)Gal(b1-4)GlcNAc(b1-3)Gal(b1-4)GlcNAc(b1-2)Man(a1-3)[Gal(b1-4)GlcNAc(b1-3)Gal(b1-4)GlcNAc(b1-3)Gal(b1-4)GlcNAc(b1-3)Gal(b1-4)GlcNAc(b1-3)Gal(b1-4)GlcNAc(b1-2)Man(a1-6)]Man(b1-4)GlcNAc(b1-4)GlcNAc. Summed up:
as §1

Experiment [20] has as its target Gal(b1-4)GlcNAc(b1-3)Gal(b1-4)GlcNAc(b1-3)Gal(b1-4)GlcNAc(b1-3)Gal(b1-4)GlcNAc(b1-3)Gal(b1-4)GlcNAc(b1-2)Man(a1-3)[Gal(b1-4)GlcNAc(b1-3)Gal(b1-4)GlcNAc(b1-3)Gal(b1-4)GlcNAc(b1-3)Gal(b1-4)GlcNAc(b1-3)Gal(b1-4)GlcNAc(b1-2)Man(a1-6)]Man(b1-4)GlcNAc(b1-4)[Fuc(a1-6)]GlcNAc. Summed up: as §1
The target of experiment [21] is Gal(b1-4)GlcNAc(b1-3)Gal(b1-4)GlcNAc(b1-3)Gal(b1-4)GlcNAc(b1-3)Gal(b1-4)GlcNAc(b1-3)Gal(b1-4)GlcNAc(b1-2)[Gal(b1-4)GlcNAc(b1-3)Gal(b1-4)GlcNAc(b1-3)Gal(b1-4)GlcNAc(b1-3)Gal(b1-4)GlcNAc(b1-3)Gal(b1-4)GlcNAc(b1-6)]Man(a1-6)[Gal(b1-4)GlcNAc(b1-3)Gal(b1-4)GlcNAc(b1-3)Gal(b1-4)GlcNAc(b1-3)Gal(b1-4)GlcNAc(b1-3)Gal(b1-4)GlcNAc(b1-2)Man(a1-3)]Man(b1-4)GlcNAc(b1-4)[Fuc(a1-6)]GlcNAc. The method, boiled down: as §1

Experiment [22] deals with Gal(b1-4)GlcNAc(b1-3)Gal(b1-4)GlcNAc(b1-3)Gal(b1-4)GlcNAc(b1-3)Gal(b1-4)GlcNAc(b1-3)Gal(b1-4)GlcNAc(b1-3)Gal(b1-4)GlcNAc(b1-2)Man(a1-3)[Gal(b1-4)GlcNAc(b1-3)Gal(b1-4)GlcNAc(b1-3)Gal(b1-4)GlcNAc(b1-3)Gal(b1-4)GlcNAc(b1-3)Gal(b1-4)GlcNAc(b1-3)Gal(b1-4)GlcNAc(b1-2)Man(a1-6)]Man(b1-4)GlcNAc(b1-4)GlcNAc. Summed up: as §1
For experiment [23], the target named is Gal(b1-4)GlcNAc(b1-3)Gal(b1-4)GlcNAc(b1-3)GalNAc. Summed up: as §1

The list shows a part of the results.

B1: EfCBM33A (Enterococcus faecalis), Q838S1 (protein)
chain: MKKSLLTIVLAFSFVLGGAALAPTVSEAHGYVASPGSRAFFGSSAGGNLNTNVGRAQWEPQSIEAPKNTFITGKLASAGVSGFEPLDEQTATRWHKTNITTGPLDITWNLTAQHRTASWDYYITKNGWNPNQPLDIKNFDKIASIDGKQEVPNKVVKQTINIPTDRKGYHVIYAVWGIGDTVNAFYQAIDVNIQ
Turning to B1, the “glycan array binding signal (z-score)” value in experiment [1] is -0.261; in experiment [2] it was -1.46; in experiment [3], -0.148; in [4], 0.264; in experiment [5], -0.608; in [6], 1.37. For the same molecule, the “glycan array binding signal (z-score)” value in experiment [7] is -0.84; in [8], 0.408; in experiment [9], 0.262; in experiment [10] it was 0.19; in experiment [11], 1.31; in experiment [12], -0.24. The “glycan array binding signal (z-score)” value in experiment [13] was 1.45; in experiment [14], 0.858; in experiment [15] it was -0.199; in experiment [16] it was 1.57; in [17], 0.279; in [18] it was 0.765. In addition, the “glycan array binding signal (z-score)” value in [19] is 1.29; in experiment [20], 8.45; in experiment [21] it was 1.59; in experiment [22], 0.009; in [23], -0.446.

For the origin of these results see the supplement of paper PMC8728848.
